# Data: the supplement of paper PMC8728848
# Some of the results follow.
# Key:
# Test in all cases: glycan array binding signal (z-score within array); higher = stronger binding
# Settings in all cases: glycan notation: IUPAC condensed, linker removed
# Neu5Ac(a2-3)GalNAc = molecular target: Neu5Ac(a2-3)GalNAc
# How it was run: (§1)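 Negative Z-scores can be read as non-binding. The Z-score is calculated within each array and then averaged across arrays of one protein sequence at different concentrations or buffers and across linkers. Arrays, 3228 in all, were curated from the Consortium for Functional Glycomics database and kept only where the protein sequence was available.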
# [1] = molecular target: Neu5Ac(a2-3)GalNAc(b1-4)GlcNAc
# How it was run: as §1
# [2] = molecular target: Neu5Ac(a2-3)[GalNAc(b1-4)]Gal(b1-4)Glc
# How it was run: as §1
# [3] = molecular target: Neu5Ac(a2-3)[GalNAc(b1-4)]Gal(b1-4)GlcNAc
# How it was run: as §1
# [4] = molecular target: Neu5Ac(a2-3)[GalNAc(b1-4)]Gal(b1-4)GlcNAc(b1-3)GalNAc
# How it was run: as §1
# [5] = molecular target: Neu5Ac(a2-3)[Neu5Ac(a2-6)]GalNAc
# How it was run: as §1
# Neu5Ac(a2-6)Gal = molecular target: Neu5Ac(a2-6)Gal
# How it was run: as §1
# [6] = molecular target: Neu5Ac(a2-6)Gal(b1-3)GlcNAc(b1-3)[Gal(b1-4)GlcNAc(b1-6)]Gal(b1-4)Glc
# How it was run: as §1
# Neu5Ac(a2-6)Gal(b1-4)Glc = molecular target: Neu5Ac(a2-6)Gal(b1-4)Glc
# How it was run: as §1
# [7] = molecular target: Neu5Ac(a2-6)Gal(b1-4)GlcNAc
# How it was run: as §1
# [8] = molecular target: Neu5Ac(a2-6)Gal(b1-4)GlcNAc(b1-2)Man
# How it was run: as §1
# [9] = molecular target: Neu5Ac(a2-6)Gal(b1-4)GlcNAc(b1-2)Man(a1-3)Man(b1-4)GlcNAc(b1-4)GlcNAc
# How it was run: as §1
# [10] = molecular target: Neu5Ac(a2-6)Gal(b1-4)GlcNAc(b1-2)Man(a1-3)[Gal(b1-4)GlcNAc(b1-2)Man(a1-6)]Man(b1-4)GlcNAc(b1-4)GlcNAc
# How it was run: as §1
# [11] = molecular target: Neu5Ac(a2-6)Gal(b1-4)GlcNAc(b1-2)Man(a1-3)[GlcNAc(b1-2)Man(a1-6)]Man(b1-4)GlcNAc(b1-4)GlcNAc
# How it was run: as §1
# [12] = molecular target: Neu5Ac(a2-6)Gal(b1-4)GlcNAc(b1-2)Man(a1-3)[GlcNAc(b1-4)][Neu5Ac(a2-6)Gal(b1-4)GlcNAc(b1-2)Man(a1-6)]Man(b1-4)GlcNAc(b1-4)GlcNAc
# How it was run: as §1
# [13] = molecular target: Neu5Ac(a2-6)Gal(b1-4)GlcNAc(b1-2)Man(a1-3)[Man(a1-6)]Man(b1-4)GlcNAc(b1-4)GlcNAc
# How it was run: as §1
# [14] = molecular target: Neu5Ac(a2-6)Gal(b1-4)GlcNAc(b1-2)Man(a1-3)[Neu5Ac(a2-3)Gal(b1-4)GlcNAc(b1-2)Man(a1-6)]Man(b1-4)GlcNAc(b1-4)GlcNAc
# How it was run: as §1
# [15] = molecular target: Neu5Ac(a2-6)Gal(b1-4)GlcNAc(b1-2)Man(a1-3)[Neu5Ac(a2-6)Gal(b1-4)GlcNAc(b1-2)Man(a1-6)]Man(b1-4)GlcNAc(b1-4)GlcNAc
# How it was run: as §1
# [16] = molecular target: Neu5Ac(a2-6)Gal(b1-4)GlcNAc(b1-2)Man(a1-3)[Neu5Ac(a2-6)Gal(b1-4)GlcNAc(b1-2)Man(a1-6)]Man(b1-4)GlcNAc(b1-4)[Fuc(a1-6)]GlcNAc
# How it was run: as §1
# [17] = molecular target: Neu5Ac(a2-6)Gal(b1-4)GlcNAc(b1-2)Man(a1-6)Man(b1-4)GlcNAc(b1-4)GlcNAc
# How it was run: as §1
# [18] = molecular target: Neu5Ac(a2-6)Gal(b1-4)GlcNAc(b1-2)Man(a1-6)[Gal(b1-4)GlcNAc(b1-2)Man(a1-3)]Man(b1-4)GlcNAc(b1-4)GlcNAc
# How it was run: as §1
# [19] = molecular target: Neu5Ac(a2-6)Gal(b1-4)GlcNAc(b1-2)Man(a1-6)[GlcNAc(b1-2)Man(a1-3)]Man(b1-4)GlcNAc(b1-4)GlcNAc
# How it was run: as §1
# [20] = molecular target: Neu5Ac(a2-6)Gal(b1-4)GlcNAc(b1-2)Man(a1-6)[Man(a1-3)]Man(b1-4)GlcNAc(b1-4)GlcNAc
# How it was run: as §1
# [21] = molecular target: Neu5Ac(a2-6)Gal(b1-4)GlcNAc(b1-2)[Neu5Ac(a2-6)Gal(b1-4)GlcNAc(b1-4)]Man(a1-3)[GlcNAc(b1-4)][Neu5Ac(a2-6)Gal(b1-4)GlcNAc(b1-2)[Neu5Ac(a2-6)Gal(b1-4)GlcNAc(b1-6)]Man(a1-6)]Man(b1-4)GlcNAc(b1-4)GlcNAc
# How it was run: as §1
# [22] = molecular target: Neu5Ac(a2-6)Gal(b1-4)GlcNAc(b1-2)[Neu5Ac(a2-6)Gal(b1-4)GlcNAc(b1-4)]Man(a1-3)[GlcNAc(b1-4)][Neu5Ac(a2-6)Gal(b1-4)GlcNAc(b1-4)Man(a1-6)]Man(b1-4)GlcNAc(b1-4)GlcNAc
# How it was run: as §1
# [23] = molecular target: Neu5Ac(a2-6)Gal(b1-4)GlcNAc(b1-2)[Neu5Ac(a2-6)Gal(b1-4)GlcNAc(b1-6)]Man(a1-6)[Neu5Ac(a2-6)Gal(b1-4)GlcNAc(b1-2)Man(a1-3)][GlcNAc(b1-4)]Man(b1-4)GlcNAc(b1-4)GlcNAc
# How it was run: as §1
# [24] = molecular target: Neu5Ac(a2-6)Gal(b1-4)GlcNAc(b1-3)Gal(b1-3)GlcNAc
# How it was run: as §1
# [25] = molecular target: Neu5Ac(a2-6)Gal(b1-4)GlcNAc(b1-3)Gal(b1-4)GlcNAc
# How it was run: as §1
# [26] = molecular target: Neu5Ac(a2-6)Gal(b1-4)GlcNAc(b1-3)Gal(b1-4)GlcNAc(b1-2)Man(a1-3)[Neu5Ac(a2-6)Gal(b1-4)GlcNAc(b1-3)Gal(b1-4)GlcNAc(b1-2)Man(a1-6)]GalNAc
# How it was run: as §1
# [27] = molecular target: Neu5Ac(a2-6)Gal(b1-4)GlcNAc(b1-3)Gal(b1-4)GlcNAc(b1-3)Gal(b1-4)GlcNAc
# How it was run: as §1
# [28] = molecular target: Neu5Ac(a2-6)Gal(b1-4)GlcNAc(b1-3)Gal(b1-4)GlcNAc(b1-3)Gal(b1-4)GlcNAc(b1-2)Man(a1-3)[Neu5Ac(a2-6)Gal(b1-4)GlcNAc(b1-3)Gal(b1-4)GlcNAc(b1-3)Gal(b1-4)GlcNAc(b1-2)Man(a1-6)]GalNAc
# How it was run: as §1
# [29] = molecular target: Neu5Ac(a2-6)Gal(b1-4)GlcNAc(b1-3)Gal(b1-4)GlcNAc(b1-3)GalNAc
# How it was run: as §1
# [30] = molecular target: Neu5Ac(a2-6)Gal(b1-4)GlcNAc(b1-3)Gal(b1-4)GlcNAc(b1-3)[Neu5Ac(a2-6)Gal(b1-4)GlcNAc(b1-3)Gal(b1-4)GlcNAc(b1-6)]GalNAc
# How it was run: as §1
# [31] = molecular target: Neu5Ac(a2-6)Gal(b1-4)GlcNAc(b1-3)Gal(b1-4)GlcNAc(b1-6)[Gal(b1-3)]GalNAc
# How it was run: as §1
# [32] = molecular target: Neu5Ac(a2-6)Gal(b1-4)GlcNAc(b1-3)Gal(b1-4)[Fuc(a1-3)]GlcNAc(b1-3)Gal(b1-4)[Fuc(a1-3)]GlcNAc
# How it was run: as §1
# [33] = molecular target: Neu5Ac(a2-6)Gal(b1-4)GlcNAc(b1-3)GalNAc
# How it was run: as §1
# [34] = molecular target: Neu5Ac(a2-6)Gal(b1-4)GlcNAc(b1-3)[Neu5Ac(a2-6)Gal(b1-4)GlcNAc(b1-6)]GalNAc
# How it was run: as §1
binder,measurement,setting,value
PX14343C-bfa-541-26-541 (Bacteroides fragilis) (protein) KAPLDEIADDSFWSDETLVKYYVNDLYSEISVDGLQLQENRSDNSVSAQRDKYRASWFKFNYDMVSASDPQDDDVWEDYYVKVRKCNRFFERIGTSTIEESEKSRLTGEVHFLRAMFYFEMVKRYGGVILLDKVLTMEDNWEIPRSSEKECYDFILEDLKKATEMLPASYGSREKGRATKGAAYALKSRVELYDKRYEDVIKSCAEVYKLGYELVDGTTPEKYRSIWWTTNKDNKEIIFDVQYKSPDVYNNMMVCNMVTYINDKYGDRGWGGLGPTQELIDAFEMADGTPATQYSQAPADQVFDINTCGIYEGREPRFYANIVFHGSQIFFNADKGAVTVDRYLMDTPDKGDGSLTGYNVWKWIDYDNYNYPYAGAGSPDFSTNWIILRYAEIYLNDAEARLETGDVEGARKAVNMIRQRVGLPDLTESDPEKLRELIRKERRIEFAFEEQRFYDVRRWKIGPETQTTLHGVRFVSPTEFKVTKTDIRTWNDRLYLTPVPHDEIVRSSVLKQNLGY,glycan array binding signal (z-score),Neu5Ac(a2-3)GalNAc,-0.755
same,glycan array binding signal (z-score),[1],-0.138
same,glycan array binding signal (z-score),[2],3.41
same,glycan array binding signal (z-score),[3],0.034
same,glycan array binding signal (z-score),[4],0.173
same,glycan array binding signal (z-score),[5],-0.014
same,glycan array binding signal (z-score),Neu5Ac(a2-6)Gal,-0.786
same,glycan array binding signal (z-score),[6],0.425
same,glycan array binding signal (z-score),Neu5Ac(a2-6)Gal(b1-4)Glc,-0.113
same,glycan array binding signal (z-score),[7],-0.496
same,glycan array binding signal (z-score),[8],0.443
same,glycan array binding signal (z-score),[9],-0.352
same,glycan array binding signal (z-score),[10],-0.436
same,glycan array binding signal (z-score),[11],-0.97
same,glycan array binding signal (z-score),[12],1.5
same,glycan array binding signal (z-score),[13],3.29
same,glycan array binding signal (z-score),[14],0.23
same,glycan array binding signal (z-score),[15],-0.207
same,glycan array binding signal (z-score),[16],-0.69
same,glycan array binding signal (z-score),[17],1.21
same,glycan array binding signal (z-score),[18],-0.665
same,glycan array binding signal (z-score),[19],-0.485
same,glycan array binding signal (z-score),[20],-0.792
same,glycan array binding signal (z-score),[21],-0.339
same,glycan array binding signal (z-score),[22],0.572
same,glycan array binding signal (z-score),[23],1.77
same,glycan array binding signal (z-score),[24],-1.08
same,glycan array binding signal (z-score),[25],-0.821
same,glycan array binding signal (z-score),[26],1.53
same,glycan array binding signal (z-score),[27],-0.192
same,glycan array binding signal (z-score),[28],1.05
same,glycan array binding signal (z-score),[29],-0.036
same,glycan array binding signal (z-score),[30],0.727
same,glycan array binding signal (z-score),[31],-0.862
same,glycan array binding signal (z-score),[32],0.149
same,glycan array binding signal (z-score),[33],1.4
same,glycan array binding signal (z-score),[34],-0.6

# An excerpt of these results, with tabs:
binder	measurement	setting	value
PX14343C-bfa-541-26-541 (Bacteroides fragilis) (protein) KAPLDEIADDSFWSDETLVKYYVNDLYSEISVDGLQLQENRSDNSVSAQRDKYRASWFKFNYDMVSASDPQDDDVWEDYYVKVRKCNRFFERIGTSTIEESEKSRLTGEVHFLRAMFYFEMVKRYGGVILLDKVLTMEDNWEIPRSSEKECYDFILEDLKKATEMLPASYGSREKGRATKGAAYALKSRVELYDKRYEDVIKSCAEVYKLGYELVDGTTPEKYRSIWWTTNKDNKEIIFDVQYKSPDVYNNMMVCNMVTYINDKYGDRGWGGLGPTQELIDAFEMADGTPATQYSQAPADQVFDINTCGIYEGREPRFYANIVFHGSQIFFNADKGAVTVDRYLMDTPDKGDGSLTGYNVWKWIDYDNYNYPYAGAGSPDFSTNWIILRYAEIYLNDAEARLETGDVEGARKAVNMIRQRVGLPDLTESDPEKLRELIRKERRIEFAFEEQRFYDVRRWKIGPETQTTLHGVRFVSPTEFKVTKTDIRTWNDRLYLTPVPHDEIVRSSVLKQNLGY	glycan array binding signal (z-score)	[8]	0.443
same	glycan array binding signal (z-score)	[9]	-0.352
same	glycan array binding signal (z-score)	[10]	-0.436
same	glycan array binding signal (z-score)	[11]	-0.97
same	glycan array binding signal (z-score)	[12]	1.5
same	glycan array binding signal (z-score)	[13]	3.29
same	glycan array binding signal (z-score)	[14]	0.23
same	glycan array binding signal (z-score)	[15]	-0.207
same	glycan array binding signal (z-score)	[16]	-0.69
same	glycan array binding signal (z-score)	[17]	1.21
